Results are given in words; binding and its absence hold for the method and conditions named. Some entries that bind do so weakly or less than the wild type.
Experiments:
[1] = biological target: SIRPa-EC_SIRPa-TM_IL7Ra-IC (SIRP-SIRPTM-7R); test: flow cytometry on transduced primary CD8+ T cells; CD47-hFc staining then anti-Fc
[2] = biological target: constitutively activated SIRPα-IL7RA fusion protein; test: as above
[3] = biological target: SIRPa-EC IL7Ra-TM_IL7Ra-IC (SIRP-7RTM-7R); test: as above
[4] = biological target: constitutively activated SIRPα-IL7RA fusion protein; test: flow cytometry on transduced primary T cells; CD47-Fc staining then anti-Fc
[5] = biological target: constitutively activated SIRPα-IL7RA fusion protein; test: flow cytometry on a transduced mixture of primary CD4 and CD8 T cells; CD47-Fc staining then anti-Fc

Sequences of proteins named here, by UniProt entry; tags and fusion partners are left off. Residues count along the entry.
UniProt Q08722, residues 19-139: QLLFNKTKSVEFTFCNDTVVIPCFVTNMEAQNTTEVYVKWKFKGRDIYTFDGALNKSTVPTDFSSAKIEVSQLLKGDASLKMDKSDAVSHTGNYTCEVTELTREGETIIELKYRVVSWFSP

binding [1]: binds | binding [2]: binds | binding [3]: binds | binding [4]: binds | binding [5]: binds
Substance: recombinant human CD47-human Fc (hFc) fusion protein (from UniProt Q08722 19-139) (Fc fusion)

From US20250281614A1
